Consider 38 compounds from PubChem BioAssay AID248 (DTP/NCI, 2004).

Each structure is given as a SMILES string. The list does not hold the whole screen: it gathers tests that were run many times, whatever their T/C, doses with no T/C, and many T/C values between a quarter and a half above the control. Further doses and runs are listed elsewhere. T/C is the treated group as % of the vehicle group. Some doses have a count of surviving animals in place of a T/C: the source files T/C as zero there, which appears to mark a toxic dose or a test without result, not a measured value. Some doses without a T/C left all or most animals alive at the check, yet need not have been tolerated: survival well below the control is almost never listed, so the zero probably covers shortened survival too. Counts of survivors are from the toxicity check (mostly the fifth day) where no day follows; animals may have died later. Schedules are NCI's codes, taken here to give the interval after Q, in days (D) or hours (H), and the number of doses after X. Some entries were tested several times; their values stand side by side, smallest first. Where survival is the endpoint, this PubChem deposit counts one and a half times the control or more as active, and values a quarter to a half above the control carry no call in these data; other NCI protocols may use other cut-offs.

In the assay the test system is L1210 leukemia ip in BDF1 mice, survival T/C. Nature of the assay: NCI In Vivo Anticancer Drug Screen. Data for tumor model L1210 Leukemia (intraperitoneal) in B6D2F1 (BDF1) mice. Conditions: T/C endpoint: mean survival time, higher T/C = longer survival.
Where [1] appears, read: dose: 400.0 mg/kg/injection, schedule: Q01DX001 (ip), vehicle: saline.
[2] abbreviates: dose: 400.0 mg/kg/injection, schedule: Q04DX003 (ip), vehicle: Klucel (hydroxypropylcellulose) (HPC).
Setting [3] is: dose: 400.0 mg/kg/injection, schedule: Q01DX009 (ip), vehicle: saline.
[4] abbreviates: dose: 400.0 mg/kg/injection, schedule: Q04DX003 (ip), vehicle: saline.
The mark [5] stands for this setting: dose: 200.0 mg/kg/injection, schedule: Q01DX009 (ip), vehicle: acetone.
[6] abbreviates: dose: 100.0 mg/kg/injection, schedule: Q04DX003 (ip), vehicle: saline.
Where [7] appears, read: dose: 200.0 mg/kg/injection, schedule: Q04DX003 (ip), vehicle: saline.
The mark [8] stands for this setting: dose: 100.0 mg/kg/injection, schedule: Q01DX009 (ip), vehicle: saline.
[9] abbreviates: dose: 400.0 mg/kg/injection, schedule: Q04DX002 (ip), vehicle: saline.
Where [10] appears, read: dose: 200.0 mg/kg/injection, schedule: Q01DX001 (ip), vehicle: carboxymethylcellulose (CMC).
[11] abbreviates: dose: 400.0 mg/kg/injection, schedule: Q01DX001 (ip), vehicle: carboxymethylcellulose (CMC).
[12] abbreviates: dose: 400.0 mg/kg/injection, schedule: Q01DX009 (ip), vehicle: Klucel (hydroxypropylcellulose) (HPC).
The mark [13] stands for this setting: dose: 100.0 mg/kg/injection, schedule: Q01DX001 (ip), vehicle: saline.
[14] abbreviates: dose: 200.0 mg/kg/injection, schedule: Q01DX001 (ip), vehicle: saline.
The mark [15] stands for this setting: dose: 100.0 mg/kg/injection, schedule: Q01DX009 (ip), vehicle: Klucel (hydroxypropylcellulose) (HPC).
Where [16] appears, read: dose: 200.0 mg/kg/injection, schedule: Q01DX009 (ip), vehicle: Klucel (hydroxypropylcellulose) (HPC).
[17] abbreviates: dose: 200.0 mg/kg/injection, schedule: Q04DX003 (ip), vehicle: saline with Tween-80.
[18] abbreviates: dose: 400.0 mg/kg/injection, schedule: Q04DX003 (ip), vehicle: saline with Tween-80.

Take `OCC1CC(n2cnc3c(=S)nc[nH]c32)C(O)C1O` (stereo not drawn): under setting [1], the survivor count is reported as 2 of 4.

For `CC(C)N(C(=O)COc1ccc(Cl)cc1)c1ccccc1`, the survivor count under setting [2] is reported as 2 of 6.

On to `COc1ccc(C(C#N)CC(=O)c2ccc(OC)c(OCc3ccccc3)c2)cc1OC` (stereo not drawn), for which the survivor count under setting [3] is listed as 2 of 6.

For `Cc1ccc(S(=O)(=O)OCC2OC(OCc3ccccc3)C3OC(C)(C)OC23)cc1` (stereo not drawn), under “dose: 100.0 mg/kg/injection, schedule: Q04DX003 (ip), vehicle: Klucel (hydroxypropylcellulose) (HPC)”, the survivor count is 6 of 6.

Take `CCCCN(CCCC)C(=O)CCC`: under setting [4], the survivor count is 3 of 6.

With `COc1cc(C(O)CN)cc(OC)c1OC` (stereo not drawn), under setting [3], the survivor count is 3 of 6.

Consider `O=C(c1ccc([N+](=O)[O-])cc1)N1C2CCCCCCC21` (stereo not drawn), for which the survivor count under setting [1] is 6 of 6.

For `CC(=O)O/C=C1\CC2C3CC=C4CC(OC(C)=O)CCC4(C)C3CCC2(C)C1=O` (stereo not drawn), the survivor count (dose: 100.0 mg/kg/injection, schedule: Q01DX001 (ip), vehicle: saline with Tween-80) was 3 of 3.

With `CCC1(Br)OC1=O` (stereo not drawn), the survivor count is on record as 5 of 6 under setting [5] and 5 of 6 (dose: 400.0 mg/kg/injection, schedule: Q04DX003 (ip), vehicle: acetone).

For the compound `C=CC(COC(C)=O)N1CC1` (stereo not drawn) (tested in a mixture with another compound), the T/C (dose: 15.0 mg/kg/injection, schedule: Q04DX003 (ip), vehicle: saline) was 126 % of control. The survivor count runs as follows: under setting [6], 1 of 6; under setting [7], 0 of 6; under setting [4], 0 of 6.

On to `O=c1cccc[nH]1`, for which, under setting [8], the T/C was 125 % of control. In addition, the survivor count by setting is: under setting [3], 2 of 6; under setting [9], 0 of 3.

For `Cc1ccc(S(=O)(=O)Nc2ccccc2-c2nc3ccc([N+](=O)[O-])cc3c(=O)o2)cc1`, for the setting “dose: 400.0 mg/kg/injection, schedule: Q01DX009 (ip), vehicle: saline with Tween-80”, the survivor count is recorded as 2 of 6.

In the case of `O=c1ncc2[nH]c(I)nc2[nH]1`, the survivor count runs as follows: under setting [10], 0 of 6; under setting [11], 2 of 6.

As to `Cc1ccc(NC(=O)c2c(Br)c(Br)c(Br)c(Br)c2C(=O)O)cc1Cl`, the survivor count under setting [12] is 2 of 6.

Turning to `CN1CCC(=C(C#N)C#N)CC1`, the survivor count by setting is: under setting [7], 1 of 6; under setting [4], 0 of 6.

Take `Cc1cccc(/C=N/N(C)C(N)=S)n1`: under setting [11], the survivor count is 1 of 6.

`COc1cc(C[N+]23CC[N+](Cc4cc(OC)cc(OC)c4)(CC2)C3)cc(OC)c1`: the survivor count is, setting by setting: under setting [13], 0 of 4; under setting [14], 0 of 4; under setting [1], 0 of 4.

Turning to `CC1CNC(=S)S1` (stereo not drawn), the survivor count under setting [12] is listed as 3 of 6.

As to `CC(C)(C)c1cc(C[P+](c2ccc(Cl)cc2)(c2ccc(Cl)cc2)c2ccc(Cl)cc2)cc(C(C)(C)C)c1O`, the survivor count is 5 of 6 (dose: 50.0 mg/kg/injection, schedule: Q01DX009 (ip), vehicle: Klucel (hydroxypropylcellulose) (HPC)); 4 of 6 under setting [15]; 0 of 6 under setting [16]; 3 of 6 under setting [2].

Regarding `C=CCCCCCCCCC(=O)NCc1ccncc1`, the survivor count is reported as 4 of 6 under setting [17] and 1 of 6 under setting [18].

For the compound `CN(C)c1ccc(NC2=NCCO2)cc1`, the survivor count under setting [8] was 0 of 6 and the survivor count under setting [4] was 0 of 6.

Consider `Cc1ccc(CNC(=O)Nc2cccc(C(F)(F)F)c2)cc1C`, for which, under “dose: 400.0 mg/kg/injection, schedule: Q01DX009 (ip), vehicle: gum acacia”, the survivor count is on record as 5 of 6.

As for `CNC(=O)Nc1ccccc1C(=O)NN`, where the note is “dose: 400.0 mg/kg/injection, schedule: Q01DX009 (ip), vehicle: other”, the survivor count is 2 of 6.

On to `NC(CCl)=NCCOC12CC3CC(CC(C3)C1)C2`, for which the survivor count runs as follows: (dose: 200.0 mg/kg/injection, schedule: Q04DX002 (ip), vehicle: saline) 0 of 3; under setting [9], 0 of 3.

As for `Cc1ccc(N(C=O)N=O)cc1`, under setting [1], the survivor count is given as 1 of 4.

With `CC(NC(=O)NCCCl)c1ccco1` (stereo not drawn), the survivor count runs as follows: under setting [16], 1 of 6; under setting [2], 0 of 6.

Regarding `O=C(COc1ccc(Cl)c(Cl)c1)NCc1ccc[n+](Cc2ccc(S(=O)(=O)F)c(Cl)c2)c1`, the survivor count under setting [7] is 2 of 6 and the survivor count under setting [4] is 0 of 6.

On to `O=Nc1ccc(N(CCO)CCO)cc1`, for which the survivor count (dose: 50.0 mg/kg/injection, schedule: Q01DX001 (ip), vehicle: saline) is 0 of 4; the survivor count (dose: 80.0 mg/kg/injection, schedule: Q01DX001 (ip), vehicle: saline) is reported as 0 of 4; the survivor count under setting [13] is listed as 0 of 4; the survivor count under setting [14] is recorded as 0 of 4; the survivor count under setting [1] was 0 of 4.

As for `CCOc1ccc(NC(=O)Nc2cccc(F)c2)cc1`, the survivor count runs as follows: under setting [15], 5 of 6; under setting [12], 6 of 6.

`CCCCCOC(=O)CCCc1ccc(N(CCCl)CCCl)cc1`: the T/C (dose: 25.0 mg/kg/injection, schedule: Q01DX009 (ip), vehicle: saline) is 131 and 139 % of control; the T/C (dose: 50.0 mg/kg/injection, schedule: Q01DX009 (ip), vehicle: saline) was 127 % of control. Also, the survivor count was 4 of 6 and 7 of 10 under setting [8]; 2 of 6 (dose: 200.0 mg/kg/injection, schedule: Q01DX009 (ip), vehicle: saline); 0 of 6 under setting [3].

Regarding `Oc1ccc(Cl)cc1C=Nc1cnc2ccccc2c1`, the survivor count under setting [10] is given as 4 of 4.

For the compound `Cc1nc(N)c([N+](=O)[O-])cc1[N+](=O)[O-]`, the survivor count under setting [5] is on record as 5 of 6 and the survivor count (dose: 400.0 mg/kg/injection, schedule: Q01DX009 (ip), vehicle: acetone) is given as 0 of 6.

As for `CN(C)Cc1cccc(N)c1`, the survivor count (dose: 100.0 mg/kg/injection, schedule: Q01DX009 (ip), vehicle: water) is given as 6 of 6; the survivor count (dose: 200.0 mg/kg/injection, schedule: Q04DX003 (ip), vehicle: water) was 1 of 6; the survivor count (dose: 400.0 mg/kg/injection, schedule: Q04DX003 (ip), vehicle: water) is recorded as 0 of 6.

As to `COC(=O)C#CCCC#CC(C)=O`, the survivor count (dose: 150.0 mg/kg/injection, schedule: Q04DX002 (ip), vehicle: gum acacia) is reported as 0 of 3 and the survivor count (dose: 300.0 mg/kg/injection, schedule: Q04DX002 (ip), vehicle: gum acacia) is listed as 0 of 3.

As to `C[P+](C)(Cc1ccc([N+](=O)[O-])cc1)c1ccccc1`, the survivor count is recorded as 1 of 6 under setting [8], 3 of 6 under setting [6], 0 of 6 under setting [7] and 0 of 6 under setting [4].

Consider `NC1(C(=O)O)CSSC1`, for which the survivor count runs as follows: (dose: 100.0 mg/kg/injection, schedule: Q01DX005 (ip), vehicle: saline) 2 of 4; (dose: 200.0 mg/kg/injection, schedule: Q01DX005 (ip), vehicle: saline) 0 of 3; under setting [1], 1 of 4; (dose: 400.0 mg/kg/injection, schedule: Q01DX005 (ip), vehicle: saline) 0 of 3.

Take `CC(=O)Oc1ccc(/C=N/NC(N)=S)nc1`: the T/C runs as follows: (dose: 100.0 mg/kg/injection, schedule: Q04DX003 (ip), vehicle: saline with Tween-80) 135 % of control; under setting [17], 135 % of control; under setting [18], 127 % of control.

Consider `O=C1OCCC1[P+](c1ccccc1)(c1ccccc1)c1ccccc1` (stereo not drawn), for which the survivor count is on record as 0 of 4 under setting [14] and 0 of 4 under setting [1].
